Patent US8158790B2, “Cyclic amine compound” (Daiichi Sankyo Company, Limited, priority 2006, dated 2012)
pIC50: −log10 of the molar value. Counter-ions that a name gives are not always drawn. Some entries share one result that the patent states for a list of compounds.

Target: T1, human renin (Homo sapiens, UniProt P00797)
T1 construct: made in house; host or cells: 293T cells, transient expression; the conditioned medium was used unpurified and treated with trypsin
T1 sequence (P00797 67-406): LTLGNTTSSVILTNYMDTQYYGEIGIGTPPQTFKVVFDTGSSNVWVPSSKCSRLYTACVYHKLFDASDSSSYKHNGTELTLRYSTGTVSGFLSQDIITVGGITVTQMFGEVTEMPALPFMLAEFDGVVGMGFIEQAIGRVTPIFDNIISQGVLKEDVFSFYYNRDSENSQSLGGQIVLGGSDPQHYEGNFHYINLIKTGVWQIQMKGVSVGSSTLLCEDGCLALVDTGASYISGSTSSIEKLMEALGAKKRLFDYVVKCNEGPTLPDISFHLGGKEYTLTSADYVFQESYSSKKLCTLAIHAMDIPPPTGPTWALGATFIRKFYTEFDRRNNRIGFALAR
Assay: Renin inhibitory activity test, Method 2 (fluorescence-labeled synthetic renin substrate)
Assay type: biochemical
Conditions: concentration inhibiting 50% of angiotensin I generation, incubation at 37° C. for 90 minutes

pIC50, ≥ 7.00:
CC(C)[C@H](C[C@H](O)[C@@H](N)CN1CC(=O)N(c2ccccc2)CC1(C)C)C(=O)NCC(C)(C)C [Example 47, (2S,4S,5S)-5-Amino-6-(2,2-dimethyl-5-oxo-4-phenylpiperazin-1-yl)-4-hydroxy-2-isopropylhexanoic acid (2,2-dimethylpropyl)amide hemifumarate]
CC(C)[C@H](C[C@H](O)[C@@H](N)CN1CC(=O)N(c2cc(F)ccc2Cl)CC1(C)C)C(=O)NC1CCCCC1 [Example 65, (2S,4S,5S)-5-Amino-6-[4-(2-chloro-5-fluorophenyl)-2,2-dimethyl-5-oxopiperazin-1-yl]-4-hydroxy-2-isopropylhexanoic acid cyclohexylamide hemifumarate]
Cc1ccccc1N1CC(C)(C)N(C[C@H](N)[C@@H](O)C[C@@H](C)C(=O)NCC(C)(C)C)CC1=O [Example 85, (2R,4S,5S)-5-Amino-6-[2,2-dimethyl-4-(2-methylphenyl)-5-oxopiperazin-1-yl]-4-hydroxy-2-methylhexanoic acid (2,2-dimethylpropyl)amide hemifumarate]
CCc1ccccc1N1CC(C)(C)N(C[C@H](N)[C@@H](O)C[C@@H](C)C(=O)NCC(C)(C)C)CC1=O [Example 87, (2R,4S,5S)-5-Amino-6-[4-(2-ethylphenyl)-2,2-dimethyl-5-oxopiperazin-1-yl]-4-hydroxy-2-methylhexanoic acid (2,2-dimethylpropyl)amide hemifumarate]
CC(C)[C@H](C[C@H](O)[C@@H](N)CN1CC(=O)N(c2cccc(Cl)c2)CC1(C)C)C(=O)NCC(C)(C)C(N)=O [Example 17, (2S,4S,5S)-5-Amino-6-[4-(3-chlorophenyl)-2,2-dimethyl-5-oxopiperazin-1-yl]-4-hydroxy-2-isopropylhexanoic acid (2-carbamoyl-2-methylpropyl)amide hemifumarate]
CC(C)[C@H](C[C@H](O)[C@@H](N)CN1CC(=O)N(c2ccccc2Cl)CC1(C)C)C(=O)NC1CCOCC1 [Example 35, (2S,4S,5S)-5-Amino-6-[4-(2-chlorophenyl)-2,2-dimethyl-5-oxopiperazin-1-yl]-4-hydroxy-2-isopropylhexanoic acid (4H-tetrahydropyran-4-yl)amide fumarate]
Cc1cc(F)ccc1N1CC(C)(C)N(C[C@H](N)[C@@H](O)C[C@@H](C)C(=O)NCC(C)(C)C)CC1=O [Example 100, (2R,4S,5S)-5-Amino-6-[2,2-dimethyl-4-(4-fluoro-2-methylphenyl)-5-oxopiperazin-1-yl]-4-hydroxy-2-methylhexanoic acid (2,2-dimethylpropyl)amide hemifumarate]
CC(C)[C@H](C[C@H](O)[C@@H](N)CN1CC(=O)N(c2ccccc2F)CC1(C)C)C(=O)NCC(C)(C)C(N)=O [Example 16, (2S,4S,5S)-5-Amino-6-[4-(2-fluorophenyl)-2,2-dimethyl-5-oxopiperazin-1-yl]-4-hydroxy-2-isopropylhexanoic acid (2-carbamoyl-2-methylpropyl)amide fumarate]
CC(C)[C@H](C[C@H](O)[C@@H](N)CN1CC(=O)N(c2cccc(F)c2F)CC1(C)C)C(=O)NCC(C)(C)C(N)=O [Example 20, (2S,4S,5S)-5-Amino-6-[4-(2,3-difluorophenyl)-2,2-dimethyl-5-oxopiperazin-1-yl]-4-hydroxy-2-isopropylhexanoic acid (2-carbamoyl-2-methylpropyl)amide hemifumarate]
CC(C)[C@H](C[C@H](O)[C@@H](N)CN1CC(=O)N(c2ccccc2Cl)CC1(C)C)C(=O)NC1CCCCC1 [Example 7, (2S,4S,5S)-5-Amino-6-[4-(2-chlorophenyl)-2,2-dimethyl-5-oxopiperazin-1-yl]-4-hydroxy-2-isopropylhexanoic acid cyclohexylamide fumarate]
Cc1c(F)cccc1N1CC(C)(C)N(C[C@H](N)[C@@H](O)C[C@H](C(=O)NCC(C)(C)C)C(C)C)CC1=O [Example 67, (2S,4S,5S)-5-Amino-6-[2,2-dimethyl-4-(3-fluoro-2-methylphenyl)-5-oxopiperazin-1-yl]-4-hydroxy-2-isopropylhexanoic acid (2,2-dimethylpropyl)amide hemifumarate]
CC(C)[C@H](C[C@H](O)[C@@H](N)CN1CC(=O)N(c2ccccc2)CC1(C)C)C(=O)NCC(C)(C)C(N)=O [Example 14, (2S,4S,5S)-5-Amino-6-(2,2-dimethyl-5-oxo-4-phenylpiperazin-1-yl)-4-hydroxy-2-isopropylhexanoic acid (2-carbamoyl-2-methylpropyl)amide fumarate]
COc1cccc(N2CC(C)(C)N(C[C@H](N)[C@@H](O)C[C@H](C(=O)NCC(C)(C)C(N)=O)C(C)C)CC2=O)c1 [Example 19, (2S,4S,5S)-5-Amino-4-hydroxy-2-isopropyl-6-[4-(3-methoxyphenyl)-2,2-dimethyl-5-oxopiperazin-1-yl]hexanoic acid (2-carbamoyl-2-methylpropyl)amide hemifumarate]
Cc1ccccc1N1CC(C)(C)N(C[C@H](N)[C@@H](O)C[C@H](C(=O)NCC(C)C)C(C)C)CC1=O [Example 52, (2S,4S,5S)-5-Amino-6-[2,2-dimethyl-4-(2-methylphenyl)-5-oxopiperazin-1-yl]-4-hydroxy-2-isopropylhexanoic acid isobutylamide hemifumarate]
CC[C@H](C[C@H](O)[C@@H](N)CN1CC(=O)N(c2ccccc2Cl)CC1(C)C)C(=O)NCC(C)(C)O [Example 108, (2R,4S,5S)-5-Amino-6-[4-(2-chlorophenyl)-2,2-dimethyl-5-oxopiperazin-1-yl]-2-ethyl-4-hydroxyhexanoic acid (2-hydroxy-2-dimethylpropyl)amide hemifumarate]
CC(C)[C@H](C[C@H](O)[C@@H](N)CN1CC(=O)N(c2cc(Cl)ccc2F)CC1(C)C)C(=O)NCC(C)(C)C(N)=O [Example 21, (2S,4S,5S)-5-Amino-6-[4-(5-chloro-2-fluorophenyl)-2,2-dimethyl-5-oxopiperazin-1-yl]-4-hydroxy-2-isopropylhexanoic acid (2-carbamoyl-2-methylpropyl)amide hemifumarate]
CCC[C@H](C[C@H](O)[C@@H](N)CN1CC(=O)N(c2ccccc2Cl)CC1(C)C)C(=O)NCC(C)(C)C [Example 116, (2R,4S,5S)-5-Amino-6-[4-(2-chlorophenyl)-2,2-dimethyl-5-oxopiperazin-1-yl]-4-hydroxy-2-propylhexanoic acid (2,2-dimethylpropyl)amide hemifumarate]
CC(C)[C@H](C[C@H](O)[C@@H](N)CN1CC(=O)N(c2ccccc2Cl)CC1(C)C)C(=O)NCC(F)(F)F [Example 41, (2S,4S,5S)-5-Amino-6-[4-(2-chlorophenyl)-2,2-dimethyl-5-oxopiperazin-1-yl]-4-hydroxy-2-isopropylhexanoic acid (2,2,2-trifluoroethyl)amide hemifumarate]
Cc1c(F)cccc1N1CC(C)(C)N(C[C@H](N)[C@@H](O)C[C@H](C(=O)NCC(C)C)C(C)C)CC1=O [Example 68, (2S,4S,5S)-5-Amino-6-[2,2-dimethyl-4-(3-fluoro-2-methylphenyl)-5-oxopiperazin-1-yl]-4-hydroxy-2-isopropylhexanoic acid isobutylamide hemifumarate]
CCCCNC(=O)[C@@H](C[C@H](O)[C@@H](N)CN1CC(=O)N(c2ccccc2OCCCOC)CC1(C)C)C(C)C [Example 55, (2S,4S,5S)-5-Amino-4-hydroxy-2-isopropyl-6-{4-[2-(3-methoxypropoxy)phenyl]-2,2-dimethyl-5-oxopiperazin-1-yl}hexanoic acid butylamide hemifumarate]
CC(C)[C@H](C[C@H](O)[C@@H](N)CN1CC(=O)N(c2ccccc2C(F)(F)F)CC1(C)C)C(=O)NCC(C)(C)C [Example 54, (2S,4S,5S)-5-Amino-6-[2,2-dimethyl-5-oxo-4-(2-trifluoromethylphenyl)piperazin-1-yl]-4-hydroxy-2-isopropylhexanoic acid (2,2-dimethylpropyl)amide hemifumarate]
CC[C@H](C)CNC(=O)[C@@H](C[C@H](O)[C@@H](N)CN1CC(=O)N(c2ccccc2Cl)CC1(C)C)C(C)C [Example 2, (2S,4S,5S)-5-Amino-6-[4-(2-chlorophenyl)-2,2-dimethyl-5-oxopiperazin-1-yl]-4-hydroxy-2-isopropylhexanoic acid [(S)-2-methylbutyl]amide fumarate]
CC[C@H](C[C@H](O)[C@@H](N)CN1CC(=O)N(c2cc(F)ccc2C)CC1(C)C)C(=O)NCC(C)C [Example 115, (2R,4S,5S)-5-Amino-6-[2,2-dimethyl-4-(5-fluoro-2-methylphenyl)-5-oxopiperazin-1-yl]-2-ethyl-4-hydroxyhexanoic acid isobutylamide hemifumarate]
COCCOc1ccccc1N1CC(C)(C)N(C[C@H](N)[C@@H](O)C[C@H](C(=O)NCC(C)C)C(C)C)CC1=O [Example 56, (2S,4S,5S)-5-Amino-4-hydroxy-2-isopropyl-6-{4-[2-(3-methoxyethoxy)phenyl]-2,2-dimethyl-5-oxopiperazin-1-yl}hexanoic acid isobutylamide hemifumarate]
CCC(O)(CC)CNC(=O)[C@@H](C[C@H](O)[C@@H](N)CN1CC(=O)N(c2ccccc2Cl)CC1(C)C)C(C)C [Example 38, (2S,4S,5S)-5-Amino-6-[4-(2-chlorophenyl)-2,2-dimethyl-5-oxopiperazin-1-yl]-4-hydroxy-2-isopropylhexanoic acid (2-ethyl-2-hydroxybutyl)amide fumarate]
